Data published in publication PMC12819141, “RNase MRP subunit composition and role in 40S ribosome biogenesis” (Nature Structural & Molecular Biology, 2025).
These are yes or no findings as the source states them, for the method shown. Binding seen in cells or lysates may run through a third protein. These calls come from enrichment with a bait or labelling near it, and not all partners need be listed. For some of these results: A no says only that the protein was not detected with the bait. Sequences can lack the tags named with a protein.

T1: C18orf21–GFP (human) (UniProt Q32NC0)
T1 sequence: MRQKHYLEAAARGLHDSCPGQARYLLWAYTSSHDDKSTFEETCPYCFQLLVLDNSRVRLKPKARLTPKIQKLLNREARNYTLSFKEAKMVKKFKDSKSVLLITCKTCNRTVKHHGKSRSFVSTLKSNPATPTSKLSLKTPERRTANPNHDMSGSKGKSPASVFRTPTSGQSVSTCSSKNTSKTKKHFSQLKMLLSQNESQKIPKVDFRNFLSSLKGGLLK

T2: RPP14–GFP (human) (UniProt O95059)
T2 sequence: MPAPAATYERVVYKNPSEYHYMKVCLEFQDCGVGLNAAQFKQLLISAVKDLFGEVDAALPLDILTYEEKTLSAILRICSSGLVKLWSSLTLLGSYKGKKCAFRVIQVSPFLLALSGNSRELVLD

T3: RPP21–GFP (human) (UniProt Q9H633)
T3 sequence: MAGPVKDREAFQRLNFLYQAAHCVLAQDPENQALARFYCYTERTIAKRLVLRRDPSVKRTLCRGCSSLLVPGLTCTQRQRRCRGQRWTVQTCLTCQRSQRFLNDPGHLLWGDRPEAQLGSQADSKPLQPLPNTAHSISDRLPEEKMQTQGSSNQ

T4: NEPRO–GFP (human) (UniProt Q6NW34)
T4 sequence: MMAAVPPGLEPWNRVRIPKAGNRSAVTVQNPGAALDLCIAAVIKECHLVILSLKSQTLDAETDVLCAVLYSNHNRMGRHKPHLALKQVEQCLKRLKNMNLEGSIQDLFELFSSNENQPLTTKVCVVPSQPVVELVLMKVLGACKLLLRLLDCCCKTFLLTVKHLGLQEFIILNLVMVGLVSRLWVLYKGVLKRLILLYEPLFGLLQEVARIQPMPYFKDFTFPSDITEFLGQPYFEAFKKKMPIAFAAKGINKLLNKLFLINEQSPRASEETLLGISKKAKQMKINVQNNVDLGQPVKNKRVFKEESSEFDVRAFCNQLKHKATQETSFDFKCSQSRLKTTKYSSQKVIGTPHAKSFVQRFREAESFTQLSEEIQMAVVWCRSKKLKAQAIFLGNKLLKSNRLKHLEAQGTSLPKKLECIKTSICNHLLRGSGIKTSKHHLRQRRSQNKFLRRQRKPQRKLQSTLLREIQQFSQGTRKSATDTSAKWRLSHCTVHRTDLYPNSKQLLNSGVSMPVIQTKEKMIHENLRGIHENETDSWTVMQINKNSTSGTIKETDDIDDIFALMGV


Legend:
Experiment in all cases: affinity purification with mass spectrometry; label-free IP–MS; C-terminally GFP-tagged bait from HeLa lysate on Protein A beads coupled to rabbit anti-GFP antibody, 2 h at 4 °C; polysome lysis buffer (20 mM Hepes pH 7.5, 100 mM KCl, 5 mM MgCl2, 1% Triton X-100) with 1% CHAPS; compared with control GFP
C18orf21–GFP (human) = biological target: T1, C18orf21–GFP (human)
RPP14–GFP (human) = biological target: T2, RPP14–GFP (human)
RPP21–GFP (human) = biological target: T3, RPP21–GFP (human)
NEPRO–GFP (human) = biological target: T4, NEPRO–GFP (human)

Binder	binding (C18orf21–GFP (human))	binding (RPP14–GFP (human))	binding (RPP21–GFP (human))	binding (NEPRO–GFP (human))
POP1 (protein, UniProt Q99575 1-1024) MSNAKERKHAKKMRNQPTNVTLSSGFVADRGVKHHSGGEKPFQAQKQEPHPGTSRQRQTRVNPHSLPDPEVNEQSSSKGMFRKKGGWKAGPEGTSQEIPKYITASTFAQARAAEISAMLKAVTQKSSNSLVFQTLPRHMRRRAMSHNVKRLPRRLQEIAQKEAEKAVHQKKEHSKNKCHKARRCHMNRTLEFNRRQKKNIWLETHIWHAKRFHMVKKWGYCLGERPTVKSHRACYRAMTNRCLLQDLSYYCCLELKGKEEEILKALSGMCNIDTGLTFAAVHCLSGKRQGSLVLYRVNKYPREMLGPVTFIWKSQRTPGDPSESRQLWIWLHPTLKQDILEEIKAACQCVEPIKSAVCIADPLPTPSQEKSQTELPDEKIGKKRKRKDDGENAKPIKKIIGDGTRDPCLPYSWISPTTGIIISDLTMEMNRFRLIGPLSHSILTEAIKAASVHTVGEDTEETPHRWWIETCKKPDSVSLHCRQEAIFELLGGITSPAEIPAGTILGLTVGDPRINLPQKKSKALPNPEKCQDNEKVRQLLLEGVPVECTHSFIWNQDICKSVTENKISDQDLNRMRSELLVPGSQLILGPHESKIPILLIQQPGKVTGEDRLGWGSGWDVLLPKGWGMAFWIPFIYRGVRVGGLKESAVHSQYKRSPNVPGDFPDCPAGMLFAEEQAKNLLEKYKRRPPAKRPNYVKLGTLAPFCCPWEQLTQDWESRVQAYEEPSVASSPNGKESDLRRSEVPCAPMPKKTHQPSDEVGTSIEHPREAEEVMDAGCQESAGPERITDQEASENHVAATGSHLCVLRSRKLLKQLSAWCGPSSEDSRGGRRAPGRGQQGLTREACLSILGHFPRALVWVSLSLLSKGSPEPHTMICVPAKEDFLQLHEDWHYCGPQESKHSDPFRSKILKQKEKKKREKRQKPGRASSDGPAGEEPVAGQEALTLGLWSGPLPRVTLHCSRTLLGFVTQGDFSMAVGCGEALGFVSLTGLLDMLSSQPAAQRGLVLLRPPASLQYRFARIAIEV	binds	binds	binds	–
NEPRO (C3orf17) (protein, UniProt Q6NW34 1-567) MMAAVPPGLEPWNRVRIPKAGNRSAVTVQNPGAALDLCIAAVIKECHLVILSLKSQTLDAETDVLCAVLYSNHNRMGRHKPHLALKQVEQCLKRLKNMNLEGSIQDLFELFSSNENQPLTTKVCVVPSQPVVELVLMKVLGACKLLLRLLDCCCKTFLLTVKHLGLQEFIILNLVMVGLVSRLWVLYKGVLKRLILLYEPLFGLLQEVARIQPMPYFKDFTFPSDITEFLGQPYFEAFKKKMPIAFAAKGINKLLNKLFLINEQSPRASEETLLGISKKAKQMKINVQNNVDLGQPVKNKRVFKEESSEFDVRAFCNQLKHKATQETSFDFKCSQSRLKTTKYSSQKVIGTPHAKSFVQRFREAESFTQLSEEIQMAVVWCRSKKLKAQAIFLGNKLLKSNRLKHLEAQGTSLPKKLECIKTSICNHLLRGSGIKTSKHHLRQRRSQNKFLRRQRKPQRKLQSTLLREIQQFSQGTRKSATDTSAKWRLSHCTVHRTDLYPNSKQLLNSGVSMPVIQTKEKMIHENLRGIHENETDSWTVMQINKNSTSGTIKETDDIDDIFALMGV	binds	binds	no binding	–
POP5 (protein, UniProt Q969H6 1-163) MVRFKHRYLLCELVSDDPRCRLSLDDRVLSSLVRDTIARVHGTFGAAACSIGFAVRYLNAYTGIVLLRCRKEFYQLVWSALPFITYLENKGHRYPCFFNTLHVGGTIRTCQKFLIQYNRRQLLILLQNCTDEGEREAIQKSVTRSCLLEEEEESGEEAAEAME	binds	–	binds	binds
POP4 (RPP29) (protein, UniProt O95707 1-220) MKSVIYHALSQKEANDSDVQPSGAQRAEAFVRAFLKRSTPRMSPQAREDQLQRKAVVLEYFTRHKRKEKKKKAKGLSARQRRELRLFDIKPEQQRYSLFLPLHELWKQYIRDLCSGLKPDTQPQMIQAKLLKADLHGAIISVTKSKCPSYVGITGILLQETKHIFKIITKEDRLKVIPKLNCVFTVETDGFISYIYGSKFQLRSSERSAKKFKAKGTIDL	–	binds	binds	–
POP7 (RPP20) (protein, UniProt O75817 1-140) MAENREPRGAVEAELDPVEYTLRKRLPSRLPRRPNDIYVNMKTDFKAQLARCQKLLDGGARGQNACSEIYIHGLGLAINRAINIALQLQAGSFGSLQVAANTSTVELVDELEPETDTREPLTRIRNNSAIHIRVFRVTPK	binds	binds	binds	binds

Now from value to binder:

binding (C18orf21–GFP (human))	binding (RPP14–GFP (human))	binding (RPP21–GFP (human))	binding (NEPRO–GFP (human))	Binder
–	binds	no binding	binds	RMP24 (coexpressed with RPP29 in bacteria) (natural protein, human, UniProt Q32NC0 1-220, looked up, C18orf21 (RMP24), human; codon-optimized bicistronic cassette with RPP29 in pGEX-6P-1; The pGEX-6P-1 vector adds GST to one of the two chains; also called C18orf21; full-length RMP24; source: E. coli BL21-DE3, coexpressed with RPP29, purified (Glutathione-Agarose, S200 increase)) MRQKHYLEAAARGLHDSCPGQARYLLWAYTSSHDDKSTFEETCPYCFQLLVLDNSRVRLKPKARLTPKIQKLLNREARNYTLSFKEAKMVKKFKDSKSVLLITCKTCNRTVKHHGKSRSFVSTLKSNPATPTSKLSLKTPERRTANPNHDMSGSKGKSPASVFRTPTSGQSVSTCSSKNTSKTKKHFSQLKMLLSQNESQKIPKVDFRNFLSSLKGGLLK
–	binds	binds	binds	RPP38 (protein, UniProt P78345 1-283) MAAAPQAPGRGSLRKTRPLVVKTSLNNPYIIRWSALESEDMHFILQTLEDRLKAIGLQKIEDKKKKNKTPFLKKESREKCSIAVDISENLKEKKTDAKQQVSGWTPAHVRKQLAIGVNEVTRALERRELLLVLVCKSVKPAMITSHLIQLSLSRSVPACQVPRLSERIAPVIGLKCVLALAFKKNTTDFVDEVRAIIPRVPSLSVPWLQDRIEDSGENLETEPLESQDRELLDTSFEDLSKPKRKLADGRQASVTLQPLKIKKLIPNPNKIRKPPKSKKATPK
binds	–	binds	binds	RPP30 (protein, UniProt P78346 1-268) MAVFADLDLRAGSDLKALRGLVETAAHLGYSVVAINHIVDFKEKKQEIEKPVAVSELFTTLPIVQGKSRPIKILTRLTIIVSDPSHCNVLRATSSRARLYDVVAVFPKTEKLFHIACTHLDVDLVCITVTEKLPFYFKRPPINVAIDRGLAFELVYSPAIKDSTMRRYTISSALNLMQICKGKNVIISSAAERPLEIRGPYDVANLGLLFGLSESDAKAAVSTNCRAALLHGETRKTAFGIISTVKKPRPSEGDEDCLPASKKAKCEG
binds	binds	binds	binds	RPP25 (protein, UniProt Q9BUL9 1-199) MENFRKVRSEEAPAGCGAEGGGPGSGPFADLAPGAVHMRVKEGSKIRNLMAFATASMAQPATRAIVFSGCGRATTKTVTCAEILKRRLAGLHQVTRLRYRSVREVWQSLPPGPTQGQTPGEPAASLSVLKNVPGLAILLSKDALDPRQPGYQPPNPHPGPSSPPAAPASKRSLGEPAAGEGSAKRSQPEPGVADEDQTA
binds	–	binds	binds	RPP14 (protein, UniProt O95059 1-124) MPAPAATYERVVYKNPSEYHYMKVCLEFQDCGVGLNAAQFKQLLISAVKDLFGEVDAALPLDILTYEEKTLSAILRICSSGLVKLWSSLTLLGSYKGKKCAFRVIQVSPFLLALSGNSRELVLD
no binding	binds	–	no binding	RPP21 (protein, UniProt Q9H633 1-154) MAGPVKDREAFQRLNFLYQAAHCVLAQDPENQALARFYCYTERTIAKRLVLRRDPSVKRTLCRGCSSLLVPGLTCTQRQRRCRGQRWTVQTCLTCQRSQRFLNDPGHLLWGDRPEAQLGSQADSKPLQPLPNTAHSISDRLPEEKMQTQGSSNQ
